No constants are given. Whether binding was seen depends on the method and setting. In cells and extracts the contact can be indirect. Binding calls can cover weak binding; strength is not graded here.
B1: Suppressor of variegation 3–9 homolog 1 (SUV39H1) (enzyme, UniProt O43463 1-412)
chain: MAENLKGCSVCCKSSWNQLQDLCRLAKLSCPALGISKRNLYDFEVEYLCDYKKIREQEYYLVKWRGYPDSESTWEPRQNLKCVRILKQFHKDLERELLRRHHRSKTPRHLDPSLANYLVQKAKQRRALRRWEQELNAKRSHLGRITVENEVDLDGPPRAFVYINEYRVGEGITLNQVAVGCECQDCLWAPTGGCCPGASLHKFAYNDQGQVRLRAGLPIYECNSRCRCGYDCPNRVVQKGIRYDLCIFRTDDGRGWGVRTLEKIRKNSFVMEYVGEIITSEEAERRGQIYDRQGATYLFDLDYVEDVYTVDAAYYGNISHFVNHSCDPNLQVYNVFIDNLDERLPRIAFFATRTIRAGEELTFDYNMQVDPVDMESTRMDSNFGLAGLPGSPKKRVRIECKCGTESCRKYLF
B2: SETDB2 (enzyme, UniProt Q96T68 1-719)
chain: MGEKNGDAKTFWMELEDDGKVDFIFEQVQNVLQSLKQKIKDGSATNKEYIQAMILVNEATIINSSTSIKGASQKEVNAQSSDPMPVTQKEQENKSNAFPSTSCENSFPEDCTFLTTENKEILSLEDKVVDFREKDSSSNLSYQSHDCSGACLMKMPLNLKGENPLQLPIKCHFQRRHAKTNSHSSALHVSYKTPCGRSLRNVEEVFRYLLETECNFLFTDNFSFNTYVQLARNYPKQKEVVSDVDISNGVESVPISFCNEIDSRKLPQFKYRKTVWPRAYNLTNFSSMFTDSCDCSEGCIDITKCACLQLTARNAKTSPLSSDKITTGYKYKRLQRQIPTGIYECSLLCKCNRQLCQNRVVQHGPQVRLQVFKTEQKGWGVRCLDDIDRGTFVCIYSGRLLSRANTEKSYGIDENGRDENTMKNIFSKKRKLEVACSDCEVEVLPLGLETHPRTAKTEKCPPKFSNNPKELTVETKYDNISRIQYHSVIRDPESKTAIFQHNGKKMEFVSSESVTPEDNDGFKPPREHLNSKTKGAQKDSSSNHVDEFEDNLLIESDVIDITKYREETPPRSRCNQATTLDNQNIKKAIEVQIQKPQEGRSTACQRQQVFCDEELLSETKNTSSDSLTKFNKGNVFLLDATKEGNVGRFLNHSCCPNLLVQNVFVETHNRNFPLVAFFTNRYVKARTELTWDYGYEAGTVPEKEIFCQCGVNKCRKKIL

Amino acid sequences for entries named in this document (tags omitted). A change or cut given only in a name is not applied to a line headed by its entry.
UniProt Q16666: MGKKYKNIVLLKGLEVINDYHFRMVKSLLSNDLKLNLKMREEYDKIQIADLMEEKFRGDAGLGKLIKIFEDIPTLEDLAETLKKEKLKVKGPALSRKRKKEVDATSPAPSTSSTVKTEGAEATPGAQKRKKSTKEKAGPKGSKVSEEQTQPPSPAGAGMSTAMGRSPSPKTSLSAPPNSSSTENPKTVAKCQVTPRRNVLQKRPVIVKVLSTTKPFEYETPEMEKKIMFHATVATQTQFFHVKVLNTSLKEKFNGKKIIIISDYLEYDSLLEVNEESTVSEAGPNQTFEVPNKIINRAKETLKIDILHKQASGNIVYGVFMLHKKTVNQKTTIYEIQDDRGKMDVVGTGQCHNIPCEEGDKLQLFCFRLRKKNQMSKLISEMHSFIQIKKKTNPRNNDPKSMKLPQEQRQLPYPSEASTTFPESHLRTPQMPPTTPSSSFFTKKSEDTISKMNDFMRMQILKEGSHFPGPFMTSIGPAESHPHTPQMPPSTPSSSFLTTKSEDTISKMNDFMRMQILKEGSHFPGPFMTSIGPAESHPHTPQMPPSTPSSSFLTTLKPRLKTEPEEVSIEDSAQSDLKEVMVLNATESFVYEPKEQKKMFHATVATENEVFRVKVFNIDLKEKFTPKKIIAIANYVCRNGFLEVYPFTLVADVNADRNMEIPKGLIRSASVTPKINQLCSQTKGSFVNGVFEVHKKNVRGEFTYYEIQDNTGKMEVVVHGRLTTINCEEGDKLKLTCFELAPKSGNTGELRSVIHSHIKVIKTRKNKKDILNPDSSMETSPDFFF
UniProt Q9H9B1: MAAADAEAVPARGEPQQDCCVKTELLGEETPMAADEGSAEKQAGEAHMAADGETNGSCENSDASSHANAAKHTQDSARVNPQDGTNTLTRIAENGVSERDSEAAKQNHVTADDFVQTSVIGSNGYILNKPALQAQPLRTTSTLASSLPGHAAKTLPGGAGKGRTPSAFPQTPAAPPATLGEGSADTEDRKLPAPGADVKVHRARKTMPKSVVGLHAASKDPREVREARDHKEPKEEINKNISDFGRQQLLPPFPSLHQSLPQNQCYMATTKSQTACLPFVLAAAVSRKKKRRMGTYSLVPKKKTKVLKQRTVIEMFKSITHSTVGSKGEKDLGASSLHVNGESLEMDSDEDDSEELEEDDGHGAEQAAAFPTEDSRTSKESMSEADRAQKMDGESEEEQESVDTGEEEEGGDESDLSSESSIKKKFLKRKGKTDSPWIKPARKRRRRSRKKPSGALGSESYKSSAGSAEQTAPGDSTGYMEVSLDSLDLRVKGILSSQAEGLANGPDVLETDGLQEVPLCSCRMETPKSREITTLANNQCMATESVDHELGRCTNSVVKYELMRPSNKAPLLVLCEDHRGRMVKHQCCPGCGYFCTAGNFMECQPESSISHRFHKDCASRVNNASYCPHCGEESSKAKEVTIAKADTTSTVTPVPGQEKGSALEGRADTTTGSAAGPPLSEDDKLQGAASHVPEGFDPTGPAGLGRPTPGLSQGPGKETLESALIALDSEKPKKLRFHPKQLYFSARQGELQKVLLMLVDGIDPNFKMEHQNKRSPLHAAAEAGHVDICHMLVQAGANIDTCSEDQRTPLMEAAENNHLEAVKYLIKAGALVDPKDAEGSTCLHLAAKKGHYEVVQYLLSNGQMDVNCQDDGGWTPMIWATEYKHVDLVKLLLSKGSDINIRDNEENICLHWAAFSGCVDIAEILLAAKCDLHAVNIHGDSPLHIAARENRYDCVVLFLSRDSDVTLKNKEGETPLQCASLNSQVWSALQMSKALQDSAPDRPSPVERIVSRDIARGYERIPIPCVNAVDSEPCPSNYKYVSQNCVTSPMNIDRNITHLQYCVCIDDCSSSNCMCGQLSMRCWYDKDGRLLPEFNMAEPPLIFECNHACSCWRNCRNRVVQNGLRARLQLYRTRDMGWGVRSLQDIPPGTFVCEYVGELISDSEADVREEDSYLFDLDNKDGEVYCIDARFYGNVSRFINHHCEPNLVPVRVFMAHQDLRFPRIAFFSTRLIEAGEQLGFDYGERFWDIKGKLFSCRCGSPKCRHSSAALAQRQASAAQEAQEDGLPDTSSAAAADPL
UniProt Q9H5I1: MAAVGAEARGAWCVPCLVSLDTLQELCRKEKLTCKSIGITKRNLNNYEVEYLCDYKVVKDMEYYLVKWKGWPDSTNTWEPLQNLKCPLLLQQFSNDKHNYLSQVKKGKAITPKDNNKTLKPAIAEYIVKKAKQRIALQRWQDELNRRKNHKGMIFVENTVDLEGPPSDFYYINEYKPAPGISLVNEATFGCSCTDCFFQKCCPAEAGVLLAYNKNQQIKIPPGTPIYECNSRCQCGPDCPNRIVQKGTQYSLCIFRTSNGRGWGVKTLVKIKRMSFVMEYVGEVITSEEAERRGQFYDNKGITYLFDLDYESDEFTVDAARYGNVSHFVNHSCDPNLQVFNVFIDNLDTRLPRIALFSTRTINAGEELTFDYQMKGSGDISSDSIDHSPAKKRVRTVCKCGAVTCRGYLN

These molecules were tested against His-tagged full-length IFI16 (C-terminal His/DDK tagged IFI16) (human) (UniProt Q16666) (assay: pull-down; His-tag pulldown of His/DDK tagged IFI16 from transfected 293T cells (which lack IFI16) on HisPur cobalt resin (ProFound Pull-Down PolyHis kit); control plasmid as control; western blot of elutions).
In the case of “G9a-like protein (GLP) (from UniProt Q9H9B1 1-1298) (enzyme)”, the binding is reported as “binds”. With “RIZ1 (from UniProt Q13029-1 1-1718) (enzyme)” the binding was “no binding”. “SUV39H2 (from UniProt Q9H5I1 1-410) (enzyme)” was tested, and the binding was “no binding”. In the case of B1, the binding is reported as “binds”. With B2 the binding was “no binding”.

From article PMC6855800
